# Reference: PubChem BioAssay AID1347131 (National Center for Advancing Translational Sciences (NCATS), 2019)
# Screen size: about 410,000 compounds; about 2,000 (0.49%) were called active. Inconclusive results, whose numbers are uncertain, are shown with a selection of clear calls. Calls follow the shape of the full dose curve; tested in HEK293 reporter line. Potencies beside an inconclusive call are fits to weak or partial responses and may not hold up.
# Experiment: qHTS Assay for Foot and Mouth Disease Virus Antivirals: Primary Screen against the MLPCN compound library; also: nearly all actives have a fitted effect of over 55% in size
# Settings: FMDV antiviral cell-based qHTS; activity, negative = inhibition: at 57.9 µM (top of the series)
# Potency is read from the fitted curve at half-maximal effect.
SMILES,Potency,"activity, negative = inhibition"
Nc1ccc2c(c1)OC1(CCCC1)O2,"inconclusive: 1.41 µM [inhibitor, full curve, poor fit]",–
COc1cc(/C=C2/SC(=S)NC2=O)ccc1OS(=O)(=O)c1ccc(C)cc1,"inconclusive: 28.2 µM [inhibitor, partial curve, poor fit]",–
Cc1nc2c(ccc3nc(NC(=O)C(c4ccccc4)c4ccccc4)sc32)s1,"inconclusive: 12.6 µM [inhibitor, partial curve, poor fit]",–
O=C(CCc1ccc(S(=O)(=O)N2CCOCC2)cc1)N/N=C/c1ccc(O)c(O)c1O,"inconclusive: 39.8 µM [inhibitor, partial curve, poor fit]",–
CN(C)S(=O)(=O)N1CCc2ccc(NC(=O)c3ccc(C(F)(F)F)cc3)cc2C1,inactive,–
CCOc1ccc2oc(=O)cc(CN3CCN(c4ccccc4OC)CC3)c2c1,"inconclusive: 7.94 µM [inhibitor, partial curve, poor fit]",–
O=C1N/C(=C/c2cccn2-c2ccccc2)C(=O)N1Cc1ccccc1F,–,inconclusive: -30.3% [inhibitor]
Cc1ccc(NC(=O)C(=O)NCC2(c3ccccc3)CCCC2)cc1C,inactive,–
CCCCCN(C(=O)CCC(=O)OCc1cc(C)ccc1C)c1c(N)n(CCCC)c(=O)[nH]c1=O,"inconclusive: 15.8 µM [inhibitor, partial curve]",–
CC(C)c1ccc(-n2c(-c3ccccc3)c[n+]3c2CCc2ccccc2-3)cc1,"inconclusive: 11.2 µM [inhibitor, partial curve, poor fit]",–
O=C(Nc1ccc(Cc2ccncc2)cc1)c1ccc(S(=O)(=O)N2CCCC2)cc1,"inconclusive: 15.8 µM [inhibitor, partial curve, poor fit]",–
N#C/C(=C\c1ccc([N+](=O)[O-])o1)c1nc2ccccc2[nH]1,"inconclusive: 25.1 µM [inhibitor, single point]",–
COc1ccc(-c2nc(CSCC(=O)N3CCN(c4ccccc4)CC3)c(C)o2)cc1,"inconclusive: 35.5 µM [inhibitor, single point]",–
N#Cc1c(NC(=O)c2ccc([N+](=O)[O-])o2)sc2c1CCC2,"inconclusive: 17.8 µM [inhibitor, single point]",–
O=C1NC(=O)N(c2ccccc2)C(=O)/C1=C\C=C\c1ccccc1,"inconclusive: 12.6 µM [inhibitor, partial curve, poor fit]",–
CCCn1c(CN(C)Cc2ccccc2)nc2c1c(=O)n(C)c(=O)n2C,"inconclusive: 7.94 µM [inhibitor, full curve, poor fit]",–
CCCc1[nH]nc2c1C(c1ccc(Br)s1)C(C#N)=C(N)O2 (stereo unspecified),"inconclusive: 25.1 µM [inhibitor, partial curve, poor fit]",–
COC(=O)C1=C(N)Oc2cc(C)n(CC3CCCO3)c(=O)c2C1c1ccc(Cl)cc1 (stereo unspecified),–,inconclusive: -36.5% [inhibitor]

SMILES,Potency,"activity, negative = inhibition"
COc1ccccc1NC(=O)C1=C(C)NC(SCC(=O)c2ccccc2)=C(C#N)C1c1ccco1 (stereo unspecified),inactive,–
OCCN(CCO)c1nc(N2CCCCC2)c2nc(N(CCO)CCO)nc(N3CCCCC3)c2n1,"inconclusive: 31.6 µM [inhibitor, partial curve, poor fit]",–
CN1C2CCC1/C(=C/c1ccccn1)C(=O)/C2=C\c1ccccn1,"inconclusive: 3.98 µM [inhibitor, full curve, poor fit]",–
S=C(NCc1ccc(Cl)cc1)NC1CCN(Cc2ccccc2)CC1,"inconclusive: 3.98 µM [inhibitor, partial curve, poor fit]",–
COc1ccc(CCNC(=O)C(=O)NCCC2CCCCN2S(=O)(=O)c2cccs2)cc1 (stereo unspecified),"inconclusive: 31.6 µM [inhibitor, partial curve, poor fit]",–
O=C(Nc1nc(-c2ccc(S(=O)(=O)N3CCCC3)cc2)cs1)C1COc2ccccc2O1 (stereo unspecified),inactive,–
O=C(/C=C/c1cccc([N+](=O)[O-])c1)n1cnc2ccccc21,"inconclusive: 14.1 µM [inhibitor, partial curve, poor fit]",–
COCCNC(=O)c1c(N)n(/N=C/c2ccc(F)cc2)c2nc3ccccc3nc12,"inconclusive: 6.31 µM [inhibitor, partial curve, poor fit]",–
COc1ccc(CCN(C)Cc2nc(-c3cnccn3)no2)cc1OC,"inconclusive: 5.62 µM [inhibitor, full curve, poor fit]",–
CCN(CC)S(=O)(=O)c1ccc(S(=O)(=O)N2CCC(N3CCCCC3)CC2)cc1,"inconclusive: 2.51 µM [inhibitor, partial curve, poor fit]",–
CC(NC(=O)c1cccc(S(=O)(=O)N2CCN(Cc3ccccc3)CC2)c1)c1ccccc1Cl (stereo unspecified),"inconclusive: 4.47 µM [inhibitor, partial curve]",–
N#CNC1=NCN(CCc2ccccc2)CN1,"inconclusive: 7.94 µM [inhibitor, partial curve, poor fit]",–
COc1ccc(CCNC(=O)CSc2nc3cc(Cl)ccc3o2)cc1OC,"inconclusive: 39.8 µM [inhibitor, single point]",–
Cc1ccc(NC(=S)Nc2cccnc2)c(S(=O)(=O)N2CCCCC2)c1,"inconclusive: 25.1 µM [inhibitor, single point]",–
CC(=O)N(Cc1ccc(F)cc1)C1=C(NCc2ccccc2)C(=O)c2ccccc2C1=O,"inconclusive: 35.5 µM [inhibitor, partial curve, poor fit]",–
C#CCOCCOCCOCCNc1nc(N2CCN(C(=O)[C@H](Cc3ccc(O)cc3)n3cc([C@@H](N)C(C)CC)nn3)CC2)nc(N2CCN(C(=O)[C@H](CCCCN)n3cc([C@@H](N)CO)nn3)CC2)n1 (stereo partly specified),"inconclusive: 2 µM [inhibitor, partial curve, poor fit]",–
Cc1cccc(-n2ncc3c(N(C)C4CCCCC4)ncnc32)c1,"inconclusive: 17.8 µM [inhibitor, partial curve, poor fit]",–
CC(=O)OC(C)(C)/C=C/C(=O)C(C)(O)C1C(O)CC2(C)C3CC=C4C(CC(O)C(=O)C4(C)C)C3(C)C(=O)CC12C (stereo unspecified),"inconclusive: 31.6 µM [inhibitor, partial curve, poor fit]",–
